Test results published in patent US20250145665A1, “MACROCYCLIC PEPTIDES USEFUL AS MODULATORS OF TNF ALPHA” (Bristol-Myers Squibb Company, priority 2023, published 2025).
Some results were stated once for a whole list of compounds, not compound by compound. Positions of bridges follow the written chain, without caps; N, C: chain ends. Non-standard residues stand in square brackets, D forms with d. Residues, ends and D or L forms follow the SMILES beside them. Bip(4'-COOH) = N[C@@H](Cc1ccc(-c2ccc(C(=O)O)cc2)cc1)C(=O)O; Bip(4'-NHAc) = CC(=O)Nc1ccc(-c2ccc(C[C@H](N)C(=O)O)cc2)cc1; Ala(morpholin-4-yl) = N[C@@H](CN1CCOCC1)C(=O)O; Bip = N[C@@H](Cc1ccc(-c2ccccc2)cc1)C(=O)O; NMeF = CN[C@@H](Cc1ccccc1)C(=O)O; 2Pal = N[C@@H](Cc1ccccn1)C(=O)O; 3Pal = N[C@@H](Cc1cccnc1)C(=O)O; Chg = N[C@H](C(=O)O)C1CCCCC1; Aze = O=C(O)[C@@H]1CCN1; Sar = CNCC(=O)O

The chains behind the UniProt entries cited, without tags or fusion partners. Residues count along the entry.
UniProt P01375, 77-233 limits assumed: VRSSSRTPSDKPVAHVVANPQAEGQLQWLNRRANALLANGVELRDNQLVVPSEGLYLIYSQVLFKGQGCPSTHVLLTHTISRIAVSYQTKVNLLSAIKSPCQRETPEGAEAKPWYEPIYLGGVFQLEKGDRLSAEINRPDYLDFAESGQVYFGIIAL

These molecules were tested against TNFα (Homo sapiens, UniProt P01375) (assay: TNF-Induced HEK-Blue Assay). Conditions: summary statement for all examples; read-out: IC50 values measured in the TNF induced HEK-Blue assay.
Assay type: cell-based

IC50, ≤ 25 µM:
CC(=O)Nc1ccc(-c2ccc(C[C@@H]3NC(=O)[C@H](Cc4ccc(-c5ccccc5)cc4)NC(=O)[C@H](CN4CCOCC4)NC(=O)CSC[C@@H](C(=O)NCC(N)=O)NC(=O)[C@H](CC(C)C)NC(=O)[C@H](Cc4ccc(O)cc4)NC(=O)[C@H](C4CCCCC4)NC(=O)[C@@H]4CCCN4C(=O)[C@H](C(C)C)NC(=O)[C@H](CCCNC(=N)N)NC(=O)[C@H](CC(=O)O)NC(=O)[C@@H]4CCCN4C(=O)CN(C)C3=O)cc2)cc1 [Example 210] ({CH2CO}-[Ala(morpholin-4-yl)][Bip][Bip(4'-NHAc)][Sar]PDRVP[Chg]YLCG-NH2; thioether N-13)
CC(=O)Nc1ccc(-c2ccc(C[C@@H]3NC(=O)[C@H](Cc4ccc(-c5ccccc5)cc4)NC(=O)[C@H](CN4CCOCC4)NC(=O)CSC[C@@H](C(=O)NCC(N)=O)NC(=O)[C@H](CC(C)C)NC(=O)[C@H](Cc4cnc[nH]4)NC(=O)[C@H](C(C)C)NC(=O)[C@@H]4CCCN4C(=O)[C@H](C(C)C)NC(=O)[C@@H](CCCNC(=N)N)NC(=O)[C@H](CC(=O)O)NC(=O)[C@H](Cc4cnc[nH]4)NC(=O)CN(C)C3=O)cc2)cc1 [Example 211] ({CH2CO}-[Ala(morpholin-4-yl)][Bip][Bip(4'-NHAc)][Sar]HD[dR]VPVHLCG-NH2; thioether N-13)
CC(=O)Nc1ccc(-c2ccc(C[C@@H]3NC(=O)[C@H](Cc4ccc(-c5ccccc5)cc4)NC(=O)[C@H](CN4CCOCC4)NC(=O)CSC[C@@H](C(=O)NCC(N)=O)NC(=O)[C@H](CC(C)C)NC(=O)[C@H](CCCNC(=N)N)NC(=O)[C@H](C(C)C)NC(=O)[C@@H]4CCCN4C(=O)[C@H](C(C)C)NC(=O)[C@@H](CCCNC(=N)N)NC(=O)[C@H](CC(=O)O)NC(=O)[C@H](Cc4cnc[nH]4)NC(=O)CN(C)C3=O)cc2)cc1 [Example 212] ({CH2CO}-[Ala(morpholin-4-yl)][Bip][Bip(4'-NHAc)][Sar]HD[dR]VPVRLCG-NH2; thioether N-13)
CC(=O)Nc1ccc(-c2ccc(C[C@@H]3NC(=O)[C@H](Cc4ccc(-c5ccccc5)cc4)NC(=O)[C@H](CN4CCOCC4)NC(=O)CSC[C@@H](C(=O)NCC(N)=O)NC(=O)[C@H](CC(C)C)NC(=O)[C@H](Cc4cnc[nH]4)NC(=O)[C@H](C(C)C)NC(=O)[C@@H]4CCCN4C(=O)[C@H](C(C)C)NC(=O)[C@@H](CCCNC(=N)N)NC(=O)[C@H](CC(=O)O)NC(=O)[C@H](Cc4ccc(O)cc4)NC(=O)CN(C)C3=O)cc2)cc1 [Example 213] ({CH2CO}-[Ala(morpholin-4-yl)][Bip][Bip(4'-NHAc)][Sar]YD[dR]VPVHLCG-NH2; thioether N-13)
CC(C)C[C@@H]1NC(=O)[C@H](Cc2ccccc2)NC(=O)[C@H](C(C)C)NC(=O)[C@@H]2CCCN2C(=O)[C@H](C(C)C)NC(=O)[C@@H](CCCNC(=N)N)NC(=O)[C@H](CC(=O)O)NC(=O)[C@H](Cc2ccccc2)NC(=O)CN(C)C(=O)[C@H](Cc2ccc(-c3ccccc3)cc2)NC(=O)[C@H](Cc2ccc(-c3ccc(C(=O)O)cc3)cc2)NC(=O)[C@H](CN2CCOCC2)NC(=O)CSC[C@@H](C(=O)NCC(N)=O)NC1=O [Example 216] ({CH2CO}-[Ala(morpholin-4-yl)][Bip(4'-COOH)][Bip][Sar]FD[dR]VPVFLCG-NH2; thioether N-13)
CC(=O)Nc1ccc(-c2ccc(C[C@@H]3NC(=O)[C@H](Cc4ccc(-c5ccccc5)cc4)NC(=O)[C@H](CN4CCOCC4)NC(=O)CSC[C@@H](C(=O)NCC(N)=O)NC(=O)[C@H](CC(C)C)NC(=O)[C@H](Cc4ccccc4)NC(=O)[C@H](C(C)C)NC(=O)[C@@H]4CCN4C(=O)[C@H](C(C)C)NC(=O)[C@@H](CCCNC(=N)N)NC(=O)[C@H](CC(=O)O)NC(=O)[C@H](Cc4ccccc4)NC(=O)CN(C)C3=O)cc2)cc1 [Example 217] ({CH2CO}-[Ala(morpholin-4-yl)][Bip][Bip(4'-NHAc)][Sar]FD[dR]V[Aze]VFLCG-NH2; thioether N-13)
CC(=O)Nc1ccc(-c2ccc(C[C@@H]3NC(=O)[C@H](Cc4ccc(-c5ccccc5)cc4)NC(=O)[C@H](CN4CCOCC4)NC(=O)CSC[C@@H](C(=O)NCC(N)=O)NC(=O)[C@H](CC(C)C)NC(=O)[C@H](CCCNC(=N)N)NC(=O)[C@H](C4CCCCC4)NC(=O)[C@@H]4CCCN4C(=O)[C@H](CC(N)=O)NC(=O)[C@@H](CCCNC(=N)N)NC(=O)[C@H](CC(=O)O)NC(=O)[C@H](Cc4ccccn4)NC(=O)CN(C)C3=O)cc2)cc1 [Example 218] ({CH2CO}-[Ala(morpholin-4-yl)][Bip][Bip(4'-NHAc)][Sar][2Pal]D[dR]NP[Chg]RLCG-NH2; thioether N-13)
CC(C)C[C@@H]1NC(=O)[C@H](Cc2ccccc2)N(C)C(=O)[C@H](C(C)C)NC(=O)[C@@H]2CCCN2C(=O)[C@H](C(C)C)NC(=O)[C@@H](CCCNC(=N)N)NC(=O)[C@H](CC(=O)O)NC(=O)[C@H](Cc2ccc(O)cc2)NC(=O)CN(C)C(=O)[C@H](Cc2ccc(-c3ccccc3)cc2)NC(=O)[C@H](Cc2ccc(-c3ccc(C(=O)O)cc3)cc2)NC(=O)[C@H](CN2CCOCC2)NC(=O)CSC[C@@H](C(=O)NCC(N)=O)NC1=O [Example 220] ({CH2CO}-[Ala(morpholin-4-yl)][Bip(4'-COOH)][Bip][Sar]YD[dR]VPV[NMeF]LCG-NH2; thioether N-13)
CC(=O)Nc1ccc(-c2ccc(C[C@@H]3NC(=O)[C@H](Cc4ccc(-c5ccccc5)cc4)NC(=O)[C@H](CN4CCOCC4)NC(=O)CSC[C@@H](C(=O)NCC(N)=O)NC(=O)[C@H](CC(C)C)NC(=O)[C@H](Cc4ccc(O)cc4)NC(=O)[C@H](C(C)C)NC(=O)[C@@H]4CCN4C(=O)[C@H](C(C)C)NC(=O)[C@@H](CCCNC(=N)N)NC(=O)[C@H](CC(=O)O)NC(=O)[C@H](Cc4ccccc4)NC(=O)CN(C)C3=O)cc2)cc1 [Example 221] ({CH2CO}-[Ala(morpholin-4-yl)][Bip][Bip(4'-NHAc)][Sar]FD[dR]V[Aze]VYLCG-NH2; thioether N-13)
CC(=O)Nc1ccc(-c2ccc(C[C@@H]3NC(=O)[C@H](Cc4ccc(-c5ccccc5)cc4)NC(=O)[C@H](CN4CCOCC4)NC(=O)CSC[C@@H](C(=O)NCC(N)=O)NC(=O)[C@H](CC(C)C)NC(=O)[C@H](Cc4ccccn4)NC(=O)[C@H](C(C)C)NC(=O)[C@@H]4CCCN4C(=O)[C@H](C(C)C)NC(=O)[C@@H](CCCNC(=N)N)NC(=O)[C@H](CC(=O)O)NC(=O)[C@H](Cc4ccc(O)cc4)NC(=O)CN(C)C3=O)cc2)cc1 [Example 222] ({CH2CO}-[Ala(morpholin-4-yl)][Bip][Bip(4'-NHAc)][Sar]YD[dR]VPV[2Pal]LCG-NH2; thioether N-13)
CC(=O)Nc1ccc(-c2ccc(C[C@@H]3NC(=O)[C@H](Cc4ccc(-c5ccccc5)cc4)NC(=O)[C@H](CN4CCOCC4)NC(=O)CSC[C@@H](C(=O)NCC(N)=O)NC(=O)[C@H](CC(C)C)NC(=O)[C@H](Cc4cccnc4)NC(=O)[C@H](C(C)C)NC(=O)[C@@H]4CCCN4C(=O)[C@H](C(C)C)NC(=O)[C@@H](CCCNC(=N)N)NC(=O)[C@H](CC(=O)O)NC(=O)[C@H](Cc4ccc(O)cc4)NC(=O)CN(C)C3=O)cc2)cc1 [Example 223] ({CH2CO}-[Ala(morpholin-4-yl)][Bip][Bip(4'-NHAc)][Sar]YD[dR]VPV[3Pal]LCG-NH2; thioether N-13)
CC(=O)Nc1ccc(-c2ccc(C[C@@H]3NC(=O)[C@H](Cc4ccc(-c5ccc(C(=O)O)cc5)cc4)NC(=O)[C@H](CN4CCOCC4)NC(=O)CSC[C@@H](C(=O)NCC(N)=O)NC(=O)[C@H](CC(C)C)NC(=O)[C@H](Cc4ccccc4)NC(=O)[C@H](C(C)C)NC(=O)[C@@H]4CCCN4C(=O)[C@H](C(C)C)NC(=O)[C@@H](CCCNC(=N)N)NC(=O)[C@H](CC(=O)O)NC(=O)[C@H](Cc4ccccc4)NC(=O)CN(C)C3=O)cc2)cc1 [Example 225] ({CH2CO}-[Ala(morpholin-4-yl)][Bip(4'-COOH)][Bip(4'-NHAc)][Sar]FD[dR]VPVFLCG-NH2; thioether N-13)
CC(=O)Nc1ccc(-c2ccc(C[C@@H]3NC(=O)[C@H](Cc4ccc(-c5ccc(C(=O)O)cc5)cc4)NC(=O)[C@H](CN4CCOCC4)NC(=O)CSC[C@@H](C(=O)NCC(N)=O)NC(=O)[C@H](CC(C)C)NC(=O)[C@H](CCCNC(=N)N)NC(=O)[C@H](C(C)C)NC(=O)[C@@H]4CCCN4C(=O)[C@H](CC(N)=O)NC(=O)[C@@H](CCCNC(=N)N)NC(=O)[C@H](CC(=O)O)NC(=O)[C@H](Cc4ccccn4)NC(=O)CN(C)C3=O)cc2)cc1 [Example 226] ({CH2CO}-[Ala(morpholin-4-yl)][Bip(4'-COOH)][Bip(4'-NHAc)][Sar][2Pal]D[dR]NPVRLCG-NH2; thioether N-13)
CC(=O)Nc1ccc(-c2ccc(C[C@@H]3NC(=O)[C@H](Cc4ccc(-c5ccccc5)cc4)NC(=O)[C@H](CN4CCOCC4)NC(=O)CSC[C@@H](C(=O)NCC(N)=O)NC(=O)[C@H](CC(C)C)NC(=O)[C@H](Cc4ccccc4)NC(=O)[C@H](C(C)C)NC(=O)[C@@H]4CCCN4C(=O)[C@H](C(C)C)NC(=O)[C@@H](CCCNC(=N)N)NC(=O)[C@H](CC(=O)O)NC(=O)[C@H](Cc4ccccn4)NC(=O)CN(C)C3=O)cc2)cc1 [Example 227] ({CH2CO}-[Ala(morpholin-4-yl)][Bip][Bip(4'-NHAc)][Sar][2Pal]D[dR]VPVFLCG-NH2; thioether N-13)
CC(=O)Nc1ccc(-c2ccc(C[C@@H]3NC(=O)[C@H](Cc4ccc(-c5ccccc5)cc4)NC(=O)[C@H](CN4CCOCC4)NC(=O)CSC[C@@H](C(=O)NCC(N)=O)NC(=O)[C@H](CC(C)C)NC(=O)[C@H](Cc4ccccn4)NC(=O)[C@H](C(C)C)NC(=O)[C@@H]4CCCN4C(=O)[C@H](C(C)C)NC(=O)[C@@H](CCCNC(=N)N)NC(=O)[C@H](CC(=O)O)NC(=O)[C@H](Cc4ccccc4)NC(=O)CN(C)C3=O)cc2)cc1 [Example 228] ({CH2CO}-[Ala(morpholin-4-yl)][Bip][Bip(4'-NHAc)][Sar]FD[dR]VPV[2Pal]LCG-NH2; thioether N-13)
CC(C)C[C@@H]1NC(=O)[C@H](CCCNC(=N)N)NC(=O)[C@H](C(C)C)NC(=O)[C@@H]2CCCN2C(=O)[C@H](C(C)C)NC(=O)[C@@H](CCCNC(=N)N)NC(=O)[C@H](CC(=O)O)NC(=O)[C@H](Cc2cnc[nH]2)NC(=O)CN(C)C(=O)[C@H](Cc2ccc(-c3ccccc3)cc2)NC(=O)[C@H](Cc2ccc(-c3ccccc3)cc2)NC(=O)[C@H](CN2CCOCC2)NC(=O)CSC[C@@H](C(=O)NCC(N)=O)NC1=O [Example 229] ({CH2CO}-[Ala(morpholin-4-yl)][Bip][Bip][Sar]HD[dR]VPVRLCG-NH2; thioether N-13)
